Source: PubChem BioAssay AID588590 (National Center for Advancing Translational Sciences (NCATS), 2011)
About 4,000 (1%) of roughly 390,000 compounds were called active. The inconclusive results got no clear call from the source; some entries with a clear call stand among them for comparison. Calls follow the shape of the dose curve; as a rule, active = well fitted inhibition curve with a large enough effect; inconclusive = small, poorly fitted or top-dose-only effect, or another doubt; inactive = no such curve, though single readings can be large or run the other way. A potency beside an inconclusive call is a rough fit, not a confirmed value.

The chains behind the UniProt entries cited, without tags or fusion partners. Where a name states a change or a piece, a line headed by the entry shows the natural chain unless it says otherwise.
UniProt Q9UNA4: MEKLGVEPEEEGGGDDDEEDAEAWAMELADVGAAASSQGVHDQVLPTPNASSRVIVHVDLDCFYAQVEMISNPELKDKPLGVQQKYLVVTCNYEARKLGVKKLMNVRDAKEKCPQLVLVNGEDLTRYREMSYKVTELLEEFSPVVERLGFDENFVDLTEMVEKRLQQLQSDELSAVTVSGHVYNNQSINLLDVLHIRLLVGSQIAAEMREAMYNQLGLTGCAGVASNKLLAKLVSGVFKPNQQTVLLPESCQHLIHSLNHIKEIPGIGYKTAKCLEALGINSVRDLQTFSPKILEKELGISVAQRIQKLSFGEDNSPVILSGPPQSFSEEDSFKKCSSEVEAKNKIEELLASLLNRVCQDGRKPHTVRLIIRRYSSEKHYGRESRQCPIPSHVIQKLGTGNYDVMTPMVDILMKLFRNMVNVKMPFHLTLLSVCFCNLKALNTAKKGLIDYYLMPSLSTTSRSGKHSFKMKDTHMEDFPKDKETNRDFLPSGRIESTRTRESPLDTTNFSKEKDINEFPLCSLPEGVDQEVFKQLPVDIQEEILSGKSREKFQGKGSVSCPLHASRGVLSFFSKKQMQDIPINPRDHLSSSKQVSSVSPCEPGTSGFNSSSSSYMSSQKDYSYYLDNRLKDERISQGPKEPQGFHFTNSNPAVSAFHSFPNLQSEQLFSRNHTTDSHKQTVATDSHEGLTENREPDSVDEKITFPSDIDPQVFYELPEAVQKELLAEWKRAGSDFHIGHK

Target: DNA polymerase iota (Homo sapiens) (UniProt Q9UNA4)
Assay: qHTS for Inhibitors of Polymerase Iota
Conditions: Pol iota fluorescent replication assay, 10 min; series mostly up to 115 µM; activity, negative = inhibition: at the top concentration
Procedure, shortened: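 Pol iota at 10 nM preincubated 15 min with compounds at room temperature; reaction started with fluorescent substrate, 50 nM final. Fluorescence read kinetically at 0 and 10 min; buffer-only wells as negative control.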
Potency is read from the fitted curve at half-maximal effect.

Row | SMILES | Potency | activity, negative = inhibition
1 | Fc1ccc(CSc2nc3ccccc3[nH]2)cc1 | active: 70.8 µM | 
2 | Cc1ccc(S(=O)(=O)N2CCCCC2)cc1NC(=O)COC(=O)C1(C)CC1(Cl)Cl (stereo not given) | inconclusive: 79.4 µM [inhibitor, single point] | 
3 | CC(=O)Nc1nnc(SCc2cc(=O)c3cccc(C)c3[nH]2)s1 |  | inactive: 9.94%
4 | Nc1cccc(Oc2cnccn2)c1 | inconclusive: 44.7 µM [inhibitor, single point] | 
5 | CC1(C)OC(=O)C2(Cc3ccc(Cl)cc3N3CCCC32)C(=O)O1 (stereo not given) |  | inactive: 25.2%
6 | CC(C)CCNC(=O)c1onc(CSc2nc3ccccc3[nH]2)c1C(=O)NCCC(C)C | inconclusive: 25.1 µM [inhibitor, partial curve, poor fit] | 
7 | COC(=O)c1sccc1NC(=O)Nc1ccc(C)cc1 |  | inactive: -15.4%
8 | CCc1ccc(-n2nc(C)c3c(C)cc(=O)n(CC(=O)NCc4ccc(C)cc4)c32)cc1 |  | inactive: 16.2%
9 | Cc1nn(CC(=O)O)c(=O)c2ccccc12 | inconclusive: 100 µM [inhibitor, partial curve] | 
10 | Nc1ccc(Br)c2c1C(=O)c1ccccc1C2=O | inconclusive: 79.4 µM [inhibitor, partial curve, poor fit] | 
11 | O=C(CS(=O)CC(=O)Nc1cnc2ccccc2c1)Nc1ccc(Cl)cc1 (stereo not given) | inconclusive: 50.1 µM [inhibitor, partial curve, poor fit] | 
12 | O=C(COC(=O)c1ccc(F)c(S(=O)(=O)N2CCOCC2)c1)Nc1ccc2[nH]c(=O)[nH]c2c1 | inconclusive: 79.4 µM [inhibitor, partial curve, poor fit] | 
13 | O=C(NCc1ccccc1)C1CCN(C(=O)c2cnn(-c3ccccc3)c2-n2cccc2)CC1 |  | inactive: -3.44%
14 | COCc1cc(C)nc(OCC(=O)N/N=C/c2ccc(-c3cc([N+](=O)[O-])ccc3C)o2)c1C#N |  | inactive: -7.45%
15 | Cc1c(C(=O)N2CCCCC2)sc(NC(=O)c2ccco2)c1C#N | inconclusive: 8.91 µM [inhibitor, full curve, poor fit] | 
16 | Oc1ccc(Cl)cc1CNCc1ccc(F)c(F)c1 | inconclusive: 100 µM [inhibitor, single point] | 
17 | Cc1ccc(CNC(=O)c2c[nH]n3c(=O)c(Cc4ccc(F)cc4Cl)c(C)nc23)cc1 | inconclusive: 56.2 µM [inhibitor, partial curve, poor fit] | 
18 | COc1ccccc1NCC(=O)c1ccc(C)c(C)c1 |  | inactive: -3.05%
19 | COc1cc(/C=C2\SC(N)=NC2=O)ccc1OCC(=O)Nc1ccccc1C | inconclusive: 28.2 µM [inhibitor, full curve, poor fit] | 
20 | O=C(N/N=C/c1ccc(O)c(O)c1)c1cccc(S(=O)(=O)N2CCCC2)c1 | inconclusive: 20 µM [inhibitor, full curve] | 

Full records, quoted from the list.
Cc1nn(CC(=O)O)c(=O)c2ccccc12 in the list: Potency: inconclusive: 100 µM [inhibitor, partial curve]
Cc1c(C(=O)N2CCCCC2)sc(NC(=O)c2ccco2)c1C#N in the list: Potency: inconclusive: 8.91 µM [inhibitor, full curve, poor fit]
